# PubChem BioAssay AID504465 (National Center for Advancing Translational Sciences (NCATS), 2011)
# The campaign covered roughly 2,100 compounds. About 210 (10%) were called active. Inconclusive results, whose numbers are uncertain, are shown with a selection of clear calls. Calls come from the whole dose curve; as a rule, active = well fitted inhibition curve with a large enough effect; inconclusive = small, poorly fitted or top-dose-only effect, or effect the other way; inactive = no such curve, though single readings can be large or run the other way. Potencies of inconclusive entries are doubtful fits and often do not repeat.
# Assay: IN Cell qHTS Assay for Inhibitors of the mTORC1 Signaling Pathway in MEF (Tsc2-/-, p53-/-) Cells: Sytravon; note: nearly all actives have a fitted effect of over 60% in size
# Conditions: phospho-rpS6 immunofluorescence, 24 h; activity, negative = inhibition: at 38.3 µM (top of the series)
# Outline: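 Immunofluorescence of rpS6 phosphorylation (Ser235/236) in mouse embryonic fibroblasts lacking Tsc2 and p53, after 24 h compound exposure; Hoechst-normalized signal imaged, each well scored as % active cells relative to rapamycin (7.5 nM) and DMSO controls.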
# Potency is the fitted concentration of half-maximal effect.
SMILES,Potency,"activity, negative = inhibition"
COc1ccc(Cn2c(C(=O)O)c(CNCc3ccc(C)o3)c3ccc(OC)cc32)cc1,"inconclusive: 26.1 µM [falling, partial curve, poor fit]",
CCC1CCCCN1CCCNC(=O)c1ccc2c(c1)N(Cc1cccc(Cl)c1)C(=O)c1ccccc1S2(=O)=O (configuration not stated),,inactive: 0%
COc1ccc(OC)c(NC(=O)c2nnn(CC(=O)Nc3ccc(C(C)C)cc3)c2N)c1,"inconclusive: 26.1 µM [falling, single point]",
COc1ccc2ncc3c(-c4ccc(C)c(C)c4)nn(CC(=O)Nc4ccccc4)c3c2c1,,inactive: -1.93%
O=C(NCCc1ccc(Cl)cc1)c1ccc(Cn2c(=O)c3cccn3c3cccnc32)cc1,"inconclusive: 18.5 µM [falling, single point]",
CNC(=O)C1CCC(Cn2c(=O)[nH]c3ccsc3c2=O)CC1 (configuration not stated),"inconclusive: 5.21 µM [falling, single point]",
COc1ccccc1NC(=O)c1c(NCc2ccc(C)o2)sc2c1CCC(C)C2 (configuration not stated),,inactive: 0%
Cc1ccc(C(=O)CC2(O)C(=O)N(CCc3ccccc3)c3ccc(Cl)cc32)cc1 (configuration not stated),"inconclusive: 14.7 µM [falling, single point]",
COc1ccccc1NCc1cccn1-c1nnc(N2CCOCC2)s1,,inactive: -15%
COC(=O)c1scc(-c2ccc(C)cc2)c1S(=O)(=O)Nc1cc(Cl)ccc1C,,inactive: -2.27%
CCOC(=O)c1c(NC(=O)c2ccc(S(=O)(=O)N3CCC(C)CC3)cc2)sc2c1CCN(C)C2,,inactive: -15%
COc1ccc(-n2c(SCC(=O)Nc3ccc(Cl)c(C)c3)nc3n[nH]c(C)c3c2=N)cc1,"inconclusive: 23.3 µM [falling, single point]",
Cc1cc(C)cc(-n2ccnc2SCC(=O)Nc2nnc(C)s2)c1,"inconclusive: 14.7 µM [falling, single point]",
CCOc1ccc(C2c3[nH]c4ccccc4c3CCN2C(=O)CCc2ccccc2)cc1 (configuration not stated),"inconclusive: 18.5 µM [falling, single point]",
CCCCOc1ccc(C(=O)Nc2nnc3n2CCS3)cc1,"inconclusive: 18.5 µM [falling, partial curve, poor fit]",
COc1ccc2c(c1)c(=O)c(S(=O)(=O)c1ccc(Cl)cc1)cn2C,,inactive: -15.6%
Fc1ccc(Nc2c3c(nc4nncn24)CCC3)cc1,"inconclusive: 23.3 µM [falling, single point]",
Cc1ccc(S(=O)(=O)N2CCc3cc(C(=O)N(C)Cc4ccccc4)ccc32)cc1,"inconclusive: 26.1 µM [falling, partial curve, poor fit]",
CCN(CC)c1cc(C)c2cc(NC(=O)/C=C/c3ccccc3Cl)ccc2n1,"inconclusive: 26.1 µM [falling, partial curve, poor fit]",
COc1ccc2nc(NC(=O)c3nc(S(=O)(=O)Cc4ccccc4F)ncc3Cl)sc2c1,"inconclusive: 0.208 µM [falling, full curve, poor fit]",
Cc1ccc(N2CC(C(=O)NCCS(=O)(=O)N3CCN(c4ccccc4F)CC3)CC2=O)cc1 (configuration not stated),,inactive: 1.3%
COc1ccc(CC(=O)Nc2sc3c(c2C(=O)Nc2cccc(C)c2)CCCCC3)cc1,active: 11.7 µM,
COc1ccccc1Nc1c2c(nc3ccc(NC(=O)c4ccc(OC)c(OC)c4)cc13)CCCC2,active: 1.65 µM,

SMILES,Potency,"activity, negative = inhibition"
CCC1CCCCN1CCCNC(=O)c1c(C)oc2ncn(CC(C)C)c(=O)c12 (configuration not stated),,inactive: -3.66%
CCC(Sc1ncnc2sc3c(c12)CCCC3)C(=O)OCC(C)C (configuration not stated),"inconclusive: 26.1 µM [falling, single point]",
CCOc1ccc(-c2cc(CCCC(=O)NCCc3ccc(OC)c(OC)c3)no2)cc1,,inactive: -10%
Cc1ccc(NC(=O)NCC2CCN(Cc3cccc(Cl)c3)CC2)cc1Cl,"inconclusive: 3.29 µM [falling, partial curve, poor fit]",
Cc1ccc(C)c(CN2C(=O)C(O)(c3c[nH]c4ccccc34)c3ccccc32)c1 (configuration not stated),"inconclusive: 5.21 µM [falling, single point]",
CCOc1ccc(Nc2nc(Nc3ccc(OCC)cc3)nc(N3CCOCC3)n2)cc1,active: 0.826 µM,
COc1ccc(NC(=O)c2nc(S(=O)(=O)Cc3ccc(C)cc3)ncc2Cl)cc1,active: 2.61 µM,
O=C(CCS(=O)(=O)c1nc(-c2cccs2)cc(C(F)(F)F)n1)Nc1cccc(O)c1,"inconclusive: 20.7 µM [falling, partial curve, poor fit]",
COc1ccc(Cl)cc1NC(=O)CSc1cn(CC(=O)N2CCCC2)c2ccccc12,"inconclusive: 13.1 µM [falling, single point]",
CC(C)c1nnc(NC(=O)c2nc(S(=O)(=O)Cc3ccccc3)ncc2Cl)s1,"inconclusive: 20.7 µM [falling, partial curve, poor fit]",
Nc1c(C(=O)Nc2ccc(Cl)cc2F)sc2nc(-c3cccs3)ccc12,"inconclusive: 1.31 µM [falling, partial curve, poor fit]",
CN(c1ccccc1)S(=O)(=O)c1ccc(NC(=O)c2nc(S(C)(=O)=O)ncc2Cl)cc1,active: 0.736 µM,
O=C1Nc2ccccc2Oc2cc(Oc3ccccc3)ccc21,,inactive: -19.3%
Cc1cccc(NC(=O)Cn2cc(C(=O)C3CCCCC3)c3ccccc32)c1,"inconclusive: 20.7 µM [falling, single point]",
O=C(CSc1cn(CC(=O)N2CCCC2)c2ccccc12)Nc1ccc(Cl)cc1,"inconclusive: 14.7 µM [falling, partial curve, poor fit]",
COc1ccccc1C1c2c(-c3ccc(Cl)cc3)n[nH]c2C(=O)N1c1ccc(C)cc1 (configuration not stated),"inconclusive: 26.1 µM [falling, partial curve, poor fit]",
Cc1ccccc1S(=O)(=O)Cc1ccc(C(=O)N2CCN(c3cccc(Cl)c3)CC2)o1,,inactive: -13.2%
COC(=O)c1c(-c2ccc(Cl)cc2)noc1N1CCN(c2cc(C)ccc2C)CC1,,inactive: 8.33%
CCOc1cccc(NC(=O)C2CC(=O)N(CC)C(=Nc3ccc(F)cc3)S2)c1 (configuration not stated),,inactive: -11.8%
COc1ccc(Cn2c(C(=O)O)c(CNCCc3ccco3)c3ccc(OC)cc32)cc1,,inactive: -26.7%
COC(=O)c1c(NC(=O)c2ccc(S(=O)(=O)N3CCC(C)CC3)cc2)sc2c1CCN(C)C2,,inactive: -13.9%
Cc1cc(C)c(NC(=O)C2CCN(c3nc4ccccc4n4cccc34)CC2)c(C)c1,"inconclusive: 14.7 µM [falling, single point]",
CCOc1ccccc1NS(=O)(=O)c1ccc(-c2cnc(C3CC3)o2)cc1,"inconclusive: 0.329 µM [falling, full curve]",

SMILES,Potency,"activity, negative = inhibition"
O=C(C1CCCN(S(=O)(=O)c2ccc(Br)s2)C1)N1CCN(c2ccccc2)CC1 (configuration not stated),"inconclusive: 3.29 µM [falling, single point]",
COc1ccc(NC(=O)C2CCC(CNS(=O)(=O)c3ccc(Br)s3)CC2)cc1OC (configuration not stated),,inactive: -78.3%
Cc1cccc(-c2nc(Cn3c(=O)cc(-c4ccccc4)c4c(C)nn(C)c43)c(C)o2)c1,"inconclusive: 4.65 µM [falling, single point]",
O=C(NCc1ccc(Cl)cc1)C1CCCN(c2nc3ccccc3n3cccc23)C1 (configuration not stated),"inconclusive: 26.1 µM [falling, single point]",
CCOc1ccccc1CC1C(=O)Nc2ccc(Br)cc21 (configuration not stated),,inactive: -39.3%
O=C(CSc1nc2ccccc2nc1Cc1ccc(Cl)cc1)NCCc1ccccc1,"inconclusive: 14.7 µM [falling, single point]",
CCOc1cc(C2c3c(-c4ccc(Br)cc4)n[nH]c3C(=O)N2c2ccc(Cl)cc2)ccc1O (configuration not stated),,inactive: -96.1%
CCOCc1cc(CN2CCN(c3cccc(Cl)c3)CC2)c(O)c2ncccc12,"inconclusive: 0.585 µM [falling, full curve, poor fit]",
CCC(C(=O)Nc1cc(-c2nc3cccnc3s2)ccc1C)c1ccccc1 (configuration not stated),,inactive: -14.5%
O=C1CC(c2ccccc2)Cc2[nH]c(=O)c(-c3nc(-c4ccc(Cl)cc4)cs3)cc21 (configuration not stated),"inconclusive: 0.369 µM [falling, full curve, poor fit]",
COC(=O)c1c(-c2ccc(Cl)cc2)noc1N1CCN(c2cccc(C(F)(F)F)c2)CC1,,inactive: 14.6%
CCc1cccc(NC(=O)c2ccc(CNS(=O)(=O)c3ccc4c(c3)C(C)(C)C(=O)N4C)cc2)c1,,inactive: -6.44%
COC(=O)c1ccccc1-n1cc2c(c1-c1cccc(C)c1)c(=O)n(C)c(=O)n2C,"inconclusive: 2.61 µM [falling, partial curve, poor fit]",
CCCN(CCC)CCNC(=O)C1CCN(c2nc3ccc(CC)cc3s2)CC1,"inconclusive: 4.65 µM [falling, full curve, poor fit]",
O=C(CC1(O)C(=O)N(Cc2ccccc2)c2ccc(Br)cc21)c1ccccc1 (configuration not stated),active: 16.5 µM,
CC(C)c1ccc(NC(=O)C2CCCN(S(=O)(=O)c3ccc4[nH]c(=O)ccc4c3)C2)cc1 (configuration not stated),"inconclusive: 23.3 µM [falling, single point]",
Cc1ccc(OCC(=O)Nc2ccc(S(=O)(=O)N(Cc3ccccc3)c3ccccc3)cc2)cc1,"inconclusive: 32.9 µM [falling, partial curve, poor fit]",
Cc1ccc(C)c(Nc2nn3c(=O)c4ccc(C(=O)NCc5cccs5)cc4nc3s2)c1,"inconclusive: 23.3 µM [falling, single point]",
COc1cc(Cl)c(NS(=O)(=O)c2ccc(-c3coc(C)n3)cc2)c(OC)c1,"inconclusive: 0.369 µM [falling, full curve, poor fit]",
CCOC(=O)c1ccc(N2C(=O)c3n[nH]c(-c4cccs4)c3C2c2ccc(CC)cc2)cc1 (configuration not stated),,inactive: -94.6%
CCOC(=O)c1ccc2nc(C)cc(Nc3ccc(OC(C)C)cc3)c2c1,"inconclusive: 26.1 µM [falling, single point]",

# Grouped by structure: the entries above containing a CF3 group.
SMILES,Potency,"activity, negative = inhibition"
O=C(CCS(=O)(=O)c1nc(-c2cccs2)cc(C(F)(F)F)n1)Nc1cccc(O)c1,"inconclusive: 20.7 µM [falling, partial curve, poor fit]",
COC(=O)c1c(-c2ccc(Cl)cc2)noc1N1CCN(c2cccc(C(F)(F)F)c2)CC1,,inactive: 14.6%
